PubChem BioAssay AID1259301 – Sanger Institute – 2017
Shown is an unselected part of 160 reagents. Over the whole deposit, 67 (42%) are marked active. 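Calls rest on synergy in any drug arm, not on siRNA-alone viability; rescreen tested four distinct siRNAs for each gene.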 Reagent sequences are not shown. Not given: the amount of reagent, the time to read-out.

Assay: 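Synthetic lethal pairings of kinase siRNAs with targeted drugs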 (secondary rescreen of primary hits using four separate siRNAs per gene)
Cell system: LS180 human colorectal cancer cells
Reagents: single siRNA against human genes
Challenge: anchor drug BYL719 at 1 µM, cetuximab at 5 µg/ml or trametinib at 10 nM, each against a DMSO vehicle arm
Measurement: 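Replicate-averaged survival as a fraction of the non-targeting pool 2 control, and per-drug synergy scores measured relative to the anchor drug on its own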
Direction: synergy score with BYL719 and synergy score with cetuximab and synergy score with trametinib: higher = stronger synergistic (synthetic lethal) killing; viability with siRNA alone (DMSO): higher = more cells survive
Hit rule: 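Hit if synergy exceeds 0.10 with BYL719, cetuximab or trametinib, any single drug sufficing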
Meaning of the calls: active = synergy with at least one drug; inactive = no synergy with any drug

| gene | PubChem SID | synergy score with BYL719 | synergy score with cetuximab | synergy score with trametinib | viability with siRNA alone (DMSO) (fraction of control) | activity call |
| --- | --- | --- | --- | --- | --- | --- |
| GUCY2D (GeneID 3000) | SID56477308 | -0.157 | -0.2 | -0.0843 | 0.665 | inactive |
| GUCY2D (GeneID 3000) | SID56477309 | -0.0477 | 0.143 | 0.19 | 0.745 | active |
| GUCY2D (GeneID 3000) | SID56477310 | -0.0869 | -0.175 | 0.137 | 0.598 | active |
| GUCY2D (GeneID 3000) | SID135611754 | -0.167 | -0.115 | 0.103 | 0.925 | active |
| ACVR1 (GeneID 90) | SID56476923 | -0.0737 | -0.03 | 0.104 | 1 | active |
| ACVR1 (GeneID 90) | SID56476924 | -0.0316 | 0.0696 | 0.165 | 0.827 | active |
| ACVR1 (GeneID 90) | SID56476925 | -0.155 | -0.00675 | 0.228 | 0.968 | active |
| ACVR1 (GeneID 90) | SID152154144 | -0.0808 | -0.0459 | 0.225 | 0.766 | active |
| MARK3 (GeneID 4140) | SID56475931 | -0.24 | -0.0879 | -0.0195 | 0.691 | inactive |
| MARK3 (GeneID 4140) | SID56475932 | -0.0377 | 0.00161 | 0.143 | 0.833 | active |
| MARK3 (GeneID 4140) | SID56475933 | -0.217 | -0.074 | 0.0388 | 0.727 | inactive |
| MARK3 (GeneID 4140) | SID56475934 | -0.163 | -0.133 | 0.103 | 0.584 | active |
| STK36 (GeneID 27148) | SID56477127 | -0.0784 | -0.000172 | 0.078 | 0.677 | inactive |
| STK36 (GeneID 27148) | SID56477128 | -0.0168 | -0.0745 | 0.0151 | 0.924 | inactive |
| STK36 (GeneID 27148) | SID56477129 | -0.178 | 0.0458 | 0.0383 | 0.641 | inactive |
| STK36 (GeneID 27148) | SID135611686 | -0.172 | -0.0754 | 0.0833 | 0.801 | inactive |
| EPHA6 (GeneID 285220) | SID56477259 | -0.0193 | 0.0388 | -0.00427 | 0.644 | inactive |
| EPHA6 (GeneID 285220) | SID56477260 | -0.076 | 0.0159 | -0.0655 | 0.315 | inactive |
| EPHA6 (GeneID 285220) | SID56477261 | -0.0228 | 0.0268 | -0.00285 | 0.434 | inactive |
| EPHA6 (GeneID 285220) | SID56477262 | -0.183 | -0.222 | -0.0255 | 0.657 | inactive |
| CDK6 (GeneID 1021) | SID56475655 | 0.0552 | -0.0577 | 0.0386 | 0.845 | inactive |
| CDK6 (GeneID 1021) | SID56475656 | -0.0184 | 0.0717 | 0.1 | 0.355 | active |
| CDK6 (GeneID 1021) | SID56475657 | 0.143 | 0.0731 | 0.277 | 0.941 | active |
| CDK6 (GeneID 1021) | SID56475658 | -0.0388 | 0.00214 | 0.125 | 0.75 | active |
| MAPK4 (GeneID 5596) | SID56476079 | -0.0448 | 0.0492 | 0.0767 | 0.679 | inactive |
| MAPK4 (GeneID 5596) | SID56476080 | 0.0647 | -0.0806 | 0.0654 | 0.625 | inactive |
| MAPK4 (GeneID 5596) | SID56476081 | -0.0745 | -0.106 | 0.0459 | 0.609 | inactive |
| MAPK4 (GeneID 5596) | SID56476082 | -0.0668 | -0.0251 | -0.0332 | 0.452 | inactive |
| PLK1 (GeneID 5347) | SID56475783 | -0.0688 | -0.0349 | -0.0344 | 0.177 | inactive |
| PLK1 (GeneID 5347) | SID56475784 | -0.146 | -0.0873 | -0.106 | 0.283 | inactive |
| PLK1 (GeneID 5347) | SID56475785 | -0.0517 | -0.0203 | -0.0547 | 0.322 | inactive |
| PLK1 (GeneID 5347) | SID56475786 | -0.052 | -0.0487 | -0.0155 | 0.203 | inactive |
| SYK (GeneID 6850) | SID56475471 | -0.0791 | -0.102 | -0.0756 | 0.417 | inactive |
| SYK (GeneID 6850) | SID56475472 | -0.262 | -0.109 | 0.0462 | 0.63 | inactive |
| SYK (GeneID 6850) | SID56475473 | 0.0629 | 0.0392 | 0.116 | 0.6 | active |
| SYK (GeneID 6850) | SID56475474 | -0.14 | -0.157 | -0.0498 | 0.968 | inactive |
| SF3B1 (GeneID 23451) | SID152148776 | -0.126 | -0.0857 | -0.0827 | 0.131 | inactive |
| SF3B1 (GeneID 23451) | SID152150545 | -0.0355 | 0.01 | 0.00283 | 0.227 | inactive |
| SF3B1 (GeneID 23451) | SID152153930 | -0.123 | -0.167 | -0.0324 | 0.481 | inactive |
| SF3B1 (GeneID 23451) | SID152156441 | -0.0519 | 0.00186 | -0.132 | 0.277 | inactive |
| SYNCRIP (GeneID 10492) | SID134270601 | 0.128 | 0.2 | 0.0992 | 0.693 | active |
| SYNCRIP (GeneID 10492) | SID134270602 | 0.00129 | -0.0241 | 0.0633 | 0.906 | inactive |
| SYNCRIP (GeneID 10492) | SID134270603 | -0.127 | -0.0476 | -0.0323 | 0.513 | inactive |
| SYNCRIP (GeneID 10492) | SID134270604 | -0.117 | -0.0361 | -0.0376 | 0.777 | inactive |
| AK2 (GeneID 204) | SID56477903 | -0.0717 | 0.139 | 0.107 | 0.643 | active |
| AK2 (GeneID 204) | SID56477904 | -0.169 | -0.136 | -0.207 | 0.685 | inactive |
| AK2 (GeneID 204) | SID56477905 | -0.177 | -0.0267 | 0.15 | 0.896 | active |
| AK2 (GeneID 204) | SID56477906 | -0.321 | -0.0244 | 0.053 | 0.586 | inactive |
| CDKN2D (GeneID 1032) | SID56475683 | -0.276 | -0.0477 | -0.00195 | 0.495 | inactive |
| CDKN2D (GeneID 1032) | SID56475684 | -0.00243 | 0.141 | 0.17 | 0.652 | active |
| CDKN2D (GeneID 1032) | SID56475686 | -0.19 | 0.103 | 0.214 | 1 | active |
| CDKN2D (GeneID 1032) | SID135611272 | -0.0236 | 0.0864 | 0.101 | 0.491 | active |
| IKBKB (GeneID 3551) | SID56475899 | -0.19 | -0.143 | -0.0855 | 0.425 | inactive |
| IKBKB (GeneID 3551) | SID56475900 | -0.0789 | -0.0282 | 0.0029 | 0.662 | inactive |
| IKBKB (GeneID 3551) | SID56475901 | -0.163 | -0.00706 | 0.00927 | 0.761 | inactive |
| IKBKB (GeneID 3551) | SID56475902 | -0.108 | 0.0739 | -0.0437 | 0.486 | inactive |
| KCNH8 (GeneID 131096) | SID134236349 | -0.13 | -0.0566 | -0.0289 | 0.561 | inactive |
| KCNH8 (GeneID 131096) | SID134236350 | 0.0637 | 0.123 | 0.0975 | 0.58 | active |
| KCNH8 (GeneID 131096) | SID134236351 | -0.152 | 0 | -0.0476 | 0.805 | inactive |
| KCNH8 (GeneID 131096) | SID134236352 | -0.155 | -0.0271 | 0.0185 | 0.691 | inactive |
